Reference: patent publication US10064876B2, “Bile acid receptor agonism for treating addiction” (Vanderbilt University, priority 2015, dated 2018)
At least one compound was matched to its structure with a doubt left.

Test system: electrically-evoked DA release in the nucleus accumbens
Assay: amperometry of electrically-evoked DA release in ex vivo NAc slices
Conditions: 10 μM cocaine in bath, NAc slices of GB-D and GB-IL mice sensitized to cocaine

## COC(=O)[C@H]1[C@@H](OC(=O)c2ccccc2)C[C@@H]2CC[C@H]1N2C [Cocaine, cocaine]
  electrically-evoked DA response: robustly enhanced
Listed as cocaine
  electrically-evoked DA response: prolonged
